Some of the results follow.
Columns and labels:
Test in all cases: log2 fold change, soluble protein after heating vs DMSO (PISA); higher = thermal stabilisation; K562 lysate, 10 uM; active = over 0.2 and 3.5 SD of the protein, either way, in both replicates (recomputed)
[1] = compound: C#Cc1cccc(Nc2ncnc3cc(OCCOC)c(OCCOC)cc23)c1 [erlotinib]
Summary of the method: (§1)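 K562 pellets were dounce-homogenised in PBS pH 7.4 with 1 mM MgCl2, and the crude extract at 1 mg/mL protein was treated with 10 μM compound for 30 min. Aliquots were heated for 3 min across 48°C-58°C, pooled, and brought to 0.5% NP-40 at 4°C; soluble protein was the supernatant after 21,000xg for 90 min. Soluble protein was quantified by TMTpro 16plex LC-MS/MS with channel sums equalised, and reported as log2 fold change in thermal stability against DMSO controls, with values from duplicates.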

By UniProt entry, the sequences of proteins in these tests, tags left out. Where a name states a change or a piece, a line headed by the entry shows the natural chain unless it says otherwise.
UniProt Q9NX14, whole entry, looked up: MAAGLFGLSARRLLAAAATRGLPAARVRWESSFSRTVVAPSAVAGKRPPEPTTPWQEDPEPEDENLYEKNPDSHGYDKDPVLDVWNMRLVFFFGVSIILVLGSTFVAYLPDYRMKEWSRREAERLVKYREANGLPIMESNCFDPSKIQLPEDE
UniProt Q96IV0: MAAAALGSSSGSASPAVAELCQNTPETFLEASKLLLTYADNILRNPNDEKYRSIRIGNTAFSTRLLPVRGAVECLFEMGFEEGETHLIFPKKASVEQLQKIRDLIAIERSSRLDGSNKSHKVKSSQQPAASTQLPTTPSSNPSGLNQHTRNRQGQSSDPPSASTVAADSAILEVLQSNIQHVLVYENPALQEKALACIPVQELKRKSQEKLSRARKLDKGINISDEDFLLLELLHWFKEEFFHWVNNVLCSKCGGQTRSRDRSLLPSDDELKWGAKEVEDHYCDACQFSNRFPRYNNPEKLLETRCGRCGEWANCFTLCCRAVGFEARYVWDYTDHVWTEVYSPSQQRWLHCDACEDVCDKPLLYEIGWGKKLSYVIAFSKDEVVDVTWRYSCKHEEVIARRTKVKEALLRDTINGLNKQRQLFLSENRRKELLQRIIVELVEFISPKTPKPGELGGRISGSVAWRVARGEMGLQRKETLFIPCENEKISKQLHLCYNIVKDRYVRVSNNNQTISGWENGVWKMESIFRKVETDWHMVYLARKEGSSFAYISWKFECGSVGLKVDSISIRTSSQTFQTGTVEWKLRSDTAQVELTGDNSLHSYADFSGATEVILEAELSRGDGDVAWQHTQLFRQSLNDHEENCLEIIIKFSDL
UniProt Q8N183: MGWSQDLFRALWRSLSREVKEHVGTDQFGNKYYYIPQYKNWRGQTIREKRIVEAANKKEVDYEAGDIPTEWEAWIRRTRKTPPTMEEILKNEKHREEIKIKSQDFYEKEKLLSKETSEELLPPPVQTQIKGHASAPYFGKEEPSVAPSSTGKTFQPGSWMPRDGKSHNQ
UniProt P56181: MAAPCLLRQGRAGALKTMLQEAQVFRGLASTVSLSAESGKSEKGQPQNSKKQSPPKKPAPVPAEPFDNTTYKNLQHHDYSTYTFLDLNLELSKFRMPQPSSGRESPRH
UniProt Q8WX92, whole entry, looked up: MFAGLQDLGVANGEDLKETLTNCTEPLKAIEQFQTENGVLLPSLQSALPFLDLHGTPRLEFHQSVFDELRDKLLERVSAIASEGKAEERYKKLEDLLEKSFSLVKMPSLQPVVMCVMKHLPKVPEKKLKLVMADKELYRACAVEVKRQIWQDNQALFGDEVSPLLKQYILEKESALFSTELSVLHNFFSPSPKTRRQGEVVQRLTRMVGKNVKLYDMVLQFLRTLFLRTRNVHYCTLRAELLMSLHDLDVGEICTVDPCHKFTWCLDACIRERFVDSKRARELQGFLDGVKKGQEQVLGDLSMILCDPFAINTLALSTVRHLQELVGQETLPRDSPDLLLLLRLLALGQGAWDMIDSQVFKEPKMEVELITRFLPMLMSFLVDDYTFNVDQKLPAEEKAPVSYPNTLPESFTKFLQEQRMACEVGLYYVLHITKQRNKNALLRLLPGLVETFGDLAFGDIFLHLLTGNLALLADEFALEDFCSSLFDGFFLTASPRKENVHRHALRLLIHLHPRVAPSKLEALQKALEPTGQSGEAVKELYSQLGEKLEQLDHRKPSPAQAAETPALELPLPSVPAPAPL
UniProt O75489, whole entry, looked up: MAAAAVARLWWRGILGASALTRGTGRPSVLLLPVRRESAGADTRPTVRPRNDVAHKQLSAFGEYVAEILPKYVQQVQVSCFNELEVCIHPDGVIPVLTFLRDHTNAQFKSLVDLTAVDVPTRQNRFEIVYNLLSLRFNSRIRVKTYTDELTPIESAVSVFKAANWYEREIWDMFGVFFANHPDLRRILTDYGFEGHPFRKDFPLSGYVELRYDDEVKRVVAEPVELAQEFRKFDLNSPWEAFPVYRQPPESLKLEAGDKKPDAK
UniProt Q9UHB4: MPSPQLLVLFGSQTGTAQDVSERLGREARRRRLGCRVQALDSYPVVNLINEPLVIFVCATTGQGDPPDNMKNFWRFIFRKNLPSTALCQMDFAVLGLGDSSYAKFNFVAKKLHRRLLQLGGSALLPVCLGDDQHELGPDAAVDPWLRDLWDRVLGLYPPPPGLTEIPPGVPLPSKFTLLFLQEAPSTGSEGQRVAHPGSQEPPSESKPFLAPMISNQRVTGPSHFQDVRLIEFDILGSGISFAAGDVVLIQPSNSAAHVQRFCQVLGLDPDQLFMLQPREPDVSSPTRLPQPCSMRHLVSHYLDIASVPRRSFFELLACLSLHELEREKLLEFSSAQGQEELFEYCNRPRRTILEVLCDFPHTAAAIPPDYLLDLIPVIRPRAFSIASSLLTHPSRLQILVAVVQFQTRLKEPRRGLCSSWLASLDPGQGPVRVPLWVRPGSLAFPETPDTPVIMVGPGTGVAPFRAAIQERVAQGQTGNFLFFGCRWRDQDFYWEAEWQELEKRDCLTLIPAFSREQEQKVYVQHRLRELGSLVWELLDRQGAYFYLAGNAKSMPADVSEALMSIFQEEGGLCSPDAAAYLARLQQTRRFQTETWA
UniProt Q16718, whole entry, looked up: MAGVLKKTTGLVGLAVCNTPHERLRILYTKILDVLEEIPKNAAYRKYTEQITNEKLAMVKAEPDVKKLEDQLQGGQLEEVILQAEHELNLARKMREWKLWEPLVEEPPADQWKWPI
UniProt Q92692, whole entry, looked up: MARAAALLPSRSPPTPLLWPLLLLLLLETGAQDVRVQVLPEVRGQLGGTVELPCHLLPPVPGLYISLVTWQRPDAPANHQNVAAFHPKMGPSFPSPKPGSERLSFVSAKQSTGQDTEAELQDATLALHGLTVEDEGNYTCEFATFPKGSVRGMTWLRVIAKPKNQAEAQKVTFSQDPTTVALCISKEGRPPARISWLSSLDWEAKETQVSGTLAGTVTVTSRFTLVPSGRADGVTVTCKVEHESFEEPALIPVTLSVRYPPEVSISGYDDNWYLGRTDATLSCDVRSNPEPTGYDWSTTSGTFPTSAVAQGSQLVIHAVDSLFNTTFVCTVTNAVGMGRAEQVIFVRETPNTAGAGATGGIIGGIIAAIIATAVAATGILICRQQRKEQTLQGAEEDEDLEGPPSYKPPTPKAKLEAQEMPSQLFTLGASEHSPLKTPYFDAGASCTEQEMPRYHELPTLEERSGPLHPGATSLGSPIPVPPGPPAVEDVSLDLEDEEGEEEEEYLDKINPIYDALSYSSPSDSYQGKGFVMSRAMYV
UniProt P56556, whole entry, looked up: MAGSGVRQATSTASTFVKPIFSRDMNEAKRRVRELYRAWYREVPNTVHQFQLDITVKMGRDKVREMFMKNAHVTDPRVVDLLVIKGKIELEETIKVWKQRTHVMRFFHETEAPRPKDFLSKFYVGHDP
UniProt Q9Y221: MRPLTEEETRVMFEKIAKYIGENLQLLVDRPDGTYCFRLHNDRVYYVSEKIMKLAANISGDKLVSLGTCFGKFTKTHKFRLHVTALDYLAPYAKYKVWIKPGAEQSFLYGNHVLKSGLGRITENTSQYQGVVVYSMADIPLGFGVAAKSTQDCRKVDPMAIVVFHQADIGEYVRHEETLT
UniProt O76041: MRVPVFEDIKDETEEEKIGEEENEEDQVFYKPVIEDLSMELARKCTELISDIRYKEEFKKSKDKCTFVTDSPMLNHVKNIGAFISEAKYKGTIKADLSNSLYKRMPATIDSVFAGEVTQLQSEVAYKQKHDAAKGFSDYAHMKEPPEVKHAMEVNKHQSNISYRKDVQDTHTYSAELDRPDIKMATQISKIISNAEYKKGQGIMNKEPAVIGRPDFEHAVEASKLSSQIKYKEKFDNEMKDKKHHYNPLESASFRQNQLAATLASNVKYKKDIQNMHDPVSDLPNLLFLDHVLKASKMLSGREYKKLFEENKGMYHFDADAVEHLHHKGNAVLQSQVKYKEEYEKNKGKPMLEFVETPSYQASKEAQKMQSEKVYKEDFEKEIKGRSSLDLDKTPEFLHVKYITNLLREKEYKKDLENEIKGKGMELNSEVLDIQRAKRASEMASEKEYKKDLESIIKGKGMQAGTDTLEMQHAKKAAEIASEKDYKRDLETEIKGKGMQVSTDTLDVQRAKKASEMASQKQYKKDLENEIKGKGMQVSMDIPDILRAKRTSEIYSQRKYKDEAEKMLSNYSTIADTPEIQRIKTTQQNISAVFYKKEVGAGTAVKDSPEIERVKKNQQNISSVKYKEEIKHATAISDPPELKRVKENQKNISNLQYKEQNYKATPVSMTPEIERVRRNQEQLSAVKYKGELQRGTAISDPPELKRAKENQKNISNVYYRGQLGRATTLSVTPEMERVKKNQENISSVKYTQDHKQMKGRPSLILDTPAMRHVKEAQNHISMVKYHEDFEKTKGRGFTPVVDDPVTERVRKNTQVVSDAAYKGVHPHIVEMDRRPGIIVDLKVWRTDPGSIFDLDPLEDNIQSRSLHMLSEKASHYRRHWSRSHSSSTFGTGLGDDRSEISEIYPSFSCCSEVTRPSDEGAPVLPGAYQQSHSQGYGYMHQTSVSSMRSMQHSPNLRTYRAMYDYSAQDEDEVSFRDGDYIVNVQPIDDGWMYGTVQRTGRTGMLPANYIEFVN
UniProt Q00653: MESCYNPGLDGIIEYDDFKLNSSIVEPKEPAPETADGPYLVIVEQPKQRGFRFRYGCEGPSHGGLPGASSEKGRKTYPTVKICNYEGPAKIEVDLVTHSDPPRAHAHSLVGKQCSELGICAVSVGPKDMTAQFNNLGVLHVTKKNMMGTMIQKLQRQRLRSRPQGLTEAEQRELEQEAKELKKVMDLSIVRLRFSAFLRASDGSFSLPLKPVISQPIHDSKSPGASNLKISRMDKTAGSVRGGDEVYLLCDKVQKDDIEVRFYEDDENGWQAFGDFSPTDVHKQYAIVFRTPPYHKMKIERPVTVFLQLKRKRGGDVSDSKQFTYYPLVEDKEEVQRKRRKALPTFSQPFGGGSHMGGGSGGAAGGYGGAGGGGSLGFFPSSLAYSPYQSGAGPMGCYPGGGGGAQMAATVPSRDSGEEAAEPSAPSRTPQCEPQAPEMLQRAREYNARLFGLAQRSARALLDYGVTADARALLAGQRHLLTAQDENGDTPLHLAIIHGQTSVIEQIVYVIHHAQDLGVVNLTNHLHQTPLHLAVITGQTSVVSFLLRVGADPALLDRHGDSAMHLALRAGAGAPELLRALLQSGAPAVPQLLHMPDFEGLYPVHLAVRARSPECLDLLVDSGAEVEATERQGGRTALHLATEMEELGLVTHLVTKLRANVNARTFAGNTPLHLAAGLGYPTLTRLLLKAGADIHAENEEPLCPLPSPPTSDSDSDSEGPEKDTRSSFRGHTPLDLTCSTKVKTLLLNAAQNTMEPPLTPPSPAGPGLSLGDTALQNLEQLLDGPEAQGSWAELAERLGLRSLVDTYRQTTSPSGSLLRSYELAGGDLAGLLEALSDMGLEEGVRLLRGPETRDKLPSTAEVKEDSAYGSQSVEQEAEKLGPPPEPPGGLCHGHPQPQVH
UniProt Q12968: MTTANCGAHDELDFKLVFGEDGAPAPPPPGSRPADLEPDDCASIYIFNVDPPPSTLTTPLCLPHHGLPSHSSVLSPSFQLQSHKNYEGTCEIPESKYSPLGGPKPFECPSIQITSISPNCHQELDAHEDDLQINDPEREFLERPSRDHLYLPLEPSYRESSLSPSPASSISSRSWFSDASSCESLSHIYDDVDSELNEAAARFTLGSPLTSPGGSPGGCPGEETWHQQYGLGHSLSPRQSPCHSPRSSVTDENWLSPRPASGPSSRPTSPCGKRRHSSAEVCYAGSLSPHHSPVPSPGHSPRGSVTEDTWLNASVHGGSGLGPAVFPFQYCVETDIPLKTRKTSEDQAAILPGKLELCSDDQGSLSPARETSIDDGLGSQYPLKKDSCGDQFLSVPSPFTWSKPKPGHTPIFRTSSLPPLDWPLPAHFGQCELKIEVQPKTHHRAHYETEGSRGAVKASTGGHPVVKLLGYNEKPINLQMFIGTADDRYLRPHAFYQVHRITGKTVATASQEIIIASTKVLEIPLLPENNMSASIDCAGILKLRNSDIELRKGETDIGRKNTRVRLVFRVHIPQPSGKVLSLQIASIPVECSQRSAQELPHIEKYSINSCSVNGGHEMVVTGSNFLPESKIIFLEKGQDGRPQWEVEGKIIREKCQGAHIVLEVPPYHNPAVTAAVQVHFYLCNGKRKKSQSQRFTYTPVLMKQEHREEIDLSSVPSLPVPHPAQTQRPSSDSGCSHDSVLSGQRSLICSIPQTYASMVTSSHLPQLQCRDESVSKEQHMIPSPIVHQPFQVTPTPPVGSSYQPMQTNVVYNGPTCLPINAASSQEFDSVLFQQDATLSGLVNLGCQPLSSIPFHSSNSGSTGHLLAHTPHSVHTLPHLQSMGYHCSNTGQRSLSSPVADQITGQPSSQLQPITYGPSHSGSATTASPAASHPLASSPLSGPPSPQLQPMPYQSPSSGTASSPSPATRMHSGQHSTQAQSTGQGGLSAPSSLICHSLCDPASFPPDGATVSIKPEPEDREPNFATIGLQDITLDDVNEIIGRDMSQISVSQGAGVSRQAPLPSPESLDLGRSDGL

[2] = compound: C/C(=N\NC(=O)C1=CC(=CC=C1)S(=O)(=O)N2CCOCC2)/C3=C(C=CC(=C3)Cl)O
Summary of the method: as §1

[3] = compound: C1=CC(=CC=C1C2=NC3=C(N2)C=C(C=C3)C(=O)N)OC4=CC=C(C=C4)Cl
Summary of the method: as §1

[4] = compound: C1=CC2=C(C=CC(=C2)/C=C\3/C(=O)NC(=NCC4=CC=CS4)S3)N=C1
Summary of the method: as §1

[5] = compound: C1=CC2=NC=CN=C2C=C1/C=C/3\C(=O)NC(=O)S3
Summary of the method: as §1

[6] = compound: C1=CC=C(C=C1)C2=NC(=C(N2)C3=CC=NC=C3)C4=CC(=C(C=C4)Cl)O
Summary of the method: as §1

[7] = compound: C1=CC=C2C(=C1)C3=NNC4=CC=CC(=C43)C2=O
Summary of the method: as §1

[8] = compound: C1CCN(C1)C(=O)NC2=CC=CC(=C2)NC3=NC=C(C(=N3)NCCC4=CN=CN4)Br
Summary of the method: as §1

[9] = compound: C1CN(CCC1(CC2=CC=C(C=C2)Cl)N)C3=NC=NC4=C3C=CN4
Summary of the method: as §1

[10] = compound: C1COCCN1CCN2C3=CC=CC=C3N=C2NC(=O)C4=CC(=CC=C4)[N+](=O)[O-] [IRAK-1-4 Inhibitor I]
Summary of the method: as §1

[11] = compound: C=CC(=O)N1CCC[C@@H](n2nc(-c3ccc(Oc4ccccc4)cc3)c3c(N)ncnc32)C1 [ibrutinib]
Summary of the method: as §1

[12] = compound: CC(=O)c1cnc2ccc(-c3cc(Cl)c(O)c(Cl)c3)nc2c1N[C@H]1CC[C@H](CN(C)C)CC1
Summary of the method: as §1

[13] = compound: CC(C)(C)Cn1c(N)nc2ccc(-c3[nH]c(C(C)(C)C)nc3-c3ccc(F)cc3)nc21 [ralimetinib]
Summary of the method: as §1

[14] = compound: CC(C)(O)CC(=O)NCCn1ccc2ncnc(Nc3ccc(Oc4cccc(C(F)(F)F)c4)c(Cl)c3)c21
Summary of the method: as §1

[15] = compound: CC(C)C1=C2N=C(C=C(N2N=C1)NCC3=CC=CC=C3)NCCCCCCN
Summary of the method: as §1

[16] = compound: CC1=C(C(CC(=O)N1)C2=CC=C(C=C2)C(F)(F)F)C(=O)NC3=C(C=C4C(=C3)C=NN4)F
Summary of the method: as §1

[17] = compound: CC1=C(C2=C(C=C1)C(=O)C3=CC=CC=C3N2CCCN)C
Summary of the method: as §1

[18] = compound: CC1=C(C=C(C=C1)NC(=O)C2=CC(=CC=C2)C(C)(C)C#N)NC3=CC4=C(C=C3)N=CN(C4=O)C
Summary of the method: as §1

[19] = compound: CC1=C(C=C(C=C1)NC(=O)C2=CC(=CC=C2)N(C)C)NC(=O)C3=CC=C(C=C3)O
Summary of the method: as §1

[20] = compound: CC1=CC=C(C=C1)SC2=C3C=C(SC3=CN=C2)C(=O)N
Summary of the method: as §1

Measured: log2 fold change

NDUFB11 isoform 2 (UniProt Q9NX14)
inactive: [1] 0.037 | [2] -0.006 | [3] -0.067 | [4] 0.006 | [5] -0.033 | [6] -0.029 | [7] -0.029 | [8] 0.008 | [9] 0.012 | [10] 0.044 | [11] 0.034 | [12] -0.021 | [13] -0.005 | [14] -0.04 | [15] 0.02 | [16] -0.034 | [17] 0.02 | [18] 0.058 | [19] -0.011 | [20] -0.01

NGLY1 (UniProt Q96IV0)
inactive: [1] 0.022 | [2] -0.064 | [3] -0.031 | [4] -0.01 | [5] -0.009 | [6] 0.009 | [7] -0.063 | [8] -0.001 | [9] -0.011 | [10] -0.024 | [11] 0 | [12] -0.01 | [13] 0.011 | [14] -0.008 | [15] 0.03 | [16] -0.001 | [17] -0.01 | [18] -0.006 | [19] 0.017 | [20] 0

NDUFAF2 (UniProt Q8N183)
inactive: [1] 0.014 | [2] -0.048 | [3] 0 | [4] -0.013 | [5] 0.02 | [6] -0.018 | [7] -0.004 | [8] 0.02 | [9] -0.003 | [10] -0.039 | [11] -0.006 | [12] -0.004 | [13] -0.021 | [14] 0.035 | [15] 0.051 | [16] 0.036 | [17] -0.01 | [18] 0.033 | [19] 0.001 | [20] -0.021

NDUFV3 isoform 2 (UniProt P56181)
inactive: [1] -0.001 | [2] 0.019 | [3] 0.018 | [4] 0.017 | [5] -0.032 | [6] 0.004 | [7] -0.039 | [8] 0 | [9] 0.015 | [10] 0.006 | [11] 0.026 | [12] -0.01 | [13] 0.032 | [14] -0.018 | [15] -0.004 | [16] -0.002 | [17] -0.019 | [18] -0.02 | [19] 0.003 | [20] -0.027

NELFB isoform 2 (UniProt Q8WX92)
inactive: [1] 0.014 | [2] 0.024 | [3] -0.013 | [4] -0.036 | [5] -0.006 | [6] 0.003 | [7] -0.023 | [8] -0.004 | [9] 0.021 | [10] -0.002 | [11] 0.039 | [12] 0.021 | [13] 0.056 | [14] -0.011 | [15] 0.004 | [16] 0.032 | [17] -0.016 | [18] 0.007 | [19] 0.008 | [20] 0.014

NDUFS3 (UniProt O75489)
inactive: [1] -0.015 | [2] -0.008 | [3] -0.036 | [4] -0.002 | [5] 0.036 | [6] -0.02 | [7] 0 | [8] 0.025 | [9] 0.011 | [10] 0.007 | [11] -0.024 | [12] 0.013 | [13] -0.008 | [14] -0.008 | [15] -0.016 | [16] 0.027 | [17] -0.006 | [18] -0.018 | [19] -0.004 | [20] 0.013

NDOR1 isoform 2 (UniProt Q9UHB4)
inactive: [1] 0.063 | [2] -0.011 | [3] 0.006 | [4] -0.078 | [5] -0.034 | [6] -0.017 | [7] -0.098 | [8] -0.01 | [9] 0.079 | [10] 0.003 | [11] 0.013 | [12] -0.014 | [13] -0.023 | [14] -0.032 | [15] -0.018 | [16] 0.033 | [17] -0.062 | [18] 0 | [19] 0.052 | [20] -0.039

NDUFA5 (UniProt Q16718)
inactive: [1] 0.094 | [2] -0.02 | [3] -0.025 | [4] 0.003 | [5] 0.001 | [6] 0.009 | [7] -0.049 | [8] 0.004 | [9] 0.098 | [10] -0.013 | [11] 0.016 | [12] -0.021 | [13] 0.013 | [14] -0.078 | [15] -0.121 | [16] -0.041 | [17] -0.032 | [18] 0.088 | [19] 0.003 | [20] 0.051

NECTIN2 (UniProt Q92692)
inactive: [1] -0.006 | [2] -0.027 | [3] 0.005 | [4] 0.013 | [5] 0.01 | [6] -0.002 | [7] 0.006 | [8] 0.019 | [9] -0.005 | [10] -0.001 | [11] 0.005 | [12] 0.007 | [13] 0.001 | [14] -0.005 | [15] -0.016 | [16] -0.007 | [17] 0.005 | [18] -0.003 | [19] -0.015 | [20] -0.008

NDUFA6 (UniProt P56556)
inactive: [1] -0.088 | [2] 0.126 | [3] -0.042 | [4] 0.022 | [5] -0.007 | [6] -0.024 | [7] -0.108 | [8] -0.011 | [9] 0.044 | [10] -0.05 | [11] -0.037 | [12] 0.037 | [13] 0.016 | [14] -0.137 | [15] -0.044 | [16] 0.005 | [17] 0.062 | [18] 0.062 | [19] 0.063 | [20] -0.006

NIP7 (UniProt Q9Y221)
inactive: [1] 0.001 | [2] 0.01 | [3] -0.024 | [4] 0.05 | [5] -0.023 | [6] 0.021 | [7] 0 | [8] 0.05 | [9] -0.035 | [10] -0.011 | [11] 0.039 | [12] 0.017 | [13] 0.016 | [14] 0.032 | [15] 0.009 | [16] 0.009 | [17] -0.026 | [18] 0.002 | [19] -0.001 | [20] 0.031

NFYC (UniProt Q13952)
inactive: [1] -0.022 | [2] 0.056 | [3] -0.013 | [4] -0.093 | [5] 0.024 | [6] -0.01 | [7] 0.036 | [8] -0.003 | [9] 0.005 | [10] -0.05 | [11] -0.02 | [12] 0 | [13] 0.027 | [14] -0.029 | [15] 0 | [16] 0.02 | [17] 0.016 | [18] -0.005 | [19] 0.021 | [20] -0.019

4 neighbouring entries already listed, quoted:
NDOR1 isoform 2 (UniProt Q9UHB4)
inactive: [1] 0.063 | [2] -0.011 | [3] 0.006 | [4] -0.078 | [5] -0.034 | [6] -0.017 | [7] -0.098 | [8] -0.01 | [9] 0.079 | [10] 0.003 | [11] 0.013 | [12] -0.014 | [13] -0.023 | [14] -0.032 | [15] -0.018 | [16] 0.033 | [17] -0.062 | [18] 0 | [19] 0.052 | [20] -0.039

NDUFA5 (UniProt Q16718)
inactive: [1] 0.094 | [2] -0.02 | [3] -0.025 | [4] 0.003 | [5] 0.001 | [6] 0.009 | [7] -0.049 | [8] 0.004 | [9] 0.098 | [10] -0.013 | [11] 0.016 | [12] -0.021 | [13] 0.013 | [14] -0.078 | [15] -0.121 | [16] -0.041 | [17] -0.032 | [18] 0.088 | [19] 0.003 | [20] 0.051

NECTIN2 (UniProt Q92692)
inactive: [1] -0.006 | [2] -0.027 | [3] 0.005 | [4] 0.013 | [5] 0.01 | [6] -0.002 | [7] 0.006 | [8] 0.019 | [9] -0.005 | [10] -0.001 | [11] 0.005 | [12] 0.007 | [13] 0.001 | [14] -0.005 | [15] -0.016 | [16] -0.007 | [17] 0.005 | [18] -0.003 | [19] -0.015 | [20] -0.008

NDUFA6 (UniProt P56556)
inactive: [1] -0.088 | [2] 0.126 | [3] -0.042 | [4] 0.022 | [5] -0.007 | [6] -0.024 | [7] -0.108 | [8] -0.011 | [9] 0.044 | [10] -0.05 | [11] -0.037 | [12] 0.037 | [13] 0.016 | [14] -0.137 | [15] -0.044 | [16] 0.005 | [17] 0.062 | [18] 0.062 | [19] 0.063 | [20] -0.006

Later entries:

NEBL (UniProt O76041)
inactive: [1] -0.014 | [2] -0.028 | [3] 0.05 | [4] 0.015 | [5] -0.048 | [6] 0.001 | [7] -0.082 | [8] -0.087 | [9] 0.013 | [10] 0.054 | [11] 0.087 | [12] 0.052 | [13] 0.009 | [14] -0.003 | [15] -0.015 | [16] -0.037 | [17] -0.061 | [18] -0.006 | [19] -0.012 | [20] -0.025

NFKB2 (UniProt Q00653)
inactive: [1] -0.033 | [2] -0.138 | [3] -0.007 | [4] 0.049 | [5] -0.044 | [6] 0.028 | [7] -0.019 | [8] -0.02 | [9] -0.048 | [10] -0.01 | [11] 0.01 | [12] 0.014 | [13] 0.017 | [14] -0.011 | [15] -0.01 | [16] -0.018 | [17] -0.007 | [18] -0.011 | [19] 0.039 | [20] -0.022

NFATC3 (UniProt Q12968)
inactive: [1] -0.026 | [2] -0.023 | [3] 0.071 | [4] 0.05 | [5] -0.006 | [6] -0.009 | [7] -0.029 | [8] -0.046 | [9] -0.021 | [10] 0.008 | [11] 0.023 | [12] -0.005 | [13] 0.004 | [14] -0.05 | [15] 0.005 | [16] 0.044 | [17] -0.028 | [18] 0.003 | [19] 0.031 | [20] 0.003

NEK9 (UniProt Q8TD19)
inactive: [1] -0.008 | [2] 0.038 | [3] -0.028 | [4] -0.022 | [5] -0.021 | [6] -0.013 | [7] 0.154 | [8] 0.083 | [9] -0.009 | [10] 0.142 | [11] 0.005 | [12] 0.027 | [13] 0.055 | [14] 0 | [15] 0.01 | [16] 0.006 | [17] -0.01 | [18] 0.012 | [19] 0.009 | [20] 0.016

Reference: the supplement of paper PMC10849652
